Values from PubChem BioAssay AID743454 (Peter MacCallum Cancer Centre, 2014).

Assay: 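Knock-downs lowering viability or raising caspase 3/7 activity in vorinostat-treated resistant cells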 (primary screen)
Cell system: human HCT116-VR colon cancer cells, selected for vorinostat resistance
Knock-down reagent: siRNA pool against human genes, 40 nM siRNA pool
Timing: vorinostat for 24 h, read-out about 72 h after transfection
Challenge: vorinostat at 2.5 µM final
Measured: 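Cell viability by CellTiter-Fluor and caspase 3/7 activity by luminescence, each scaled to mock wells per plate, duplicates averaged, then robust z-scored over all plates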
Reading the numbers: viability robust z-score: higher = more viable cells than screen typical; caspase robust z-score: higher = more caspase 3/7 activity than screen typical
Rule for the call: 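a knock-down is a hit when classed RV1 or RV2 for lowered viability, or CA1 or CA2 for caspase activation; those lethal without drug were dropped; hits were retested singly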
The whole screen tested about 18,000 reagents; below is a part drawn at random. Over the whole deposit, 450 (2.5%) are marked active. 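Single biological run; no consistent viability z cut-off exists, so the class columns, not z-scores, define the calls.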 Unmarked entries are inactive.

SVOP | viability hit class = no change; caspase hit class = no change; viability robust z-score = 0.5; caspase robust z-score = -0.72
HNF1B | viability hit class = no change; caspase hit class = no change; viability robust z-score = -0.36; caspase robust z-score = 4.58
RAB43 | viability hit class = no change; caspase hit class = no change; viability robust z-score = -0.34; caspase robust z-score = 2.81
HOXD10 | viability hit class = no change; caspase hit class = no change; viability robust z-score = -0.12; caspase robust z-score = 1.29
MEX3B | viability hit class = no change; caspase hit class = no change; viability robust z-score = 0.63; caspase robust z-score = 1.75
KANSL3 | viability hit class = no change; caspase hit class = no change; viability robust z-score = 0.66; caspase robust z-score = -0.17
HOXC5 | viability hit class = no change; caspase hit class = no change; viability robust z-score = -2.94; caspase robust z-score = 0.87
ANKHD1-EIF4EBP3 | viability hit class = no change; caspase hit class = no change; viability robust z-score = -0.01; caspase robust z-score = 0.15
ZNF616 | viability hit class = no change; caspase hit class = no change; viability robust z-score = -0.6; caspase robust z-score = 0.07
TFPI | viability hit class = no change; caspase hit class = no change; viability robust z-score = 0.34; caspase robust z-score = -1.18
LRIF1 | viability hit class = no change; caspase hit class = no change; viability robust z-score = -0.05; caspase robust z-score = -0.02
RNF103 | viability hit class = no change; caspase hit class = no change; viability robust z-score = -1.54; caspase robust z-score = 2.02
EIF3C | viability hit class = no change; caspase hit class = no change; viability robust z-score = -3.51; caspase robust z-score = -1.15
ST8SIA6 | viability hit class = no change; caspase hit class = no change; viability robust z-score = 0.76; caspase robust z-score = -0.5
ZNF416 | viability hit class = no change; caspase hit class = no change; viability robust z-score = 0.07; caspase robust z-score = 0.64
RPL6 | viability hit class = no change; caspase hit class = no change; viability robust z-score = -4.93; caspase robust z-score = -0.86
EED | viability hit class = no change; caspase hit class = no change; viability robust z-score = -1.15; caspase robust z-score = 1.67
NGEF | viability hit class = no change; caspase hit class = no change; viability robust z-score = 0.17; caspase robust z-score = -0.64
ARFIP1 | viability hit class = no change; caspase hit class = no change; viability robust z-score = 0.9; caspase robust z-score = 2.84
OR1C1 | viability hit class = no change; caspase hit class = no change; viability robust z-score = 0.45; caspase robust z-score = -0.11
HTR4 | viability hit class = no change; caspase hit class = no change; viability robust z-score = 0.81; caspase robust z-score = -0.52
RPL8 | viability hit class = no change; caspase hit class = no change; viability robust z-score = -4.57; caspase robust z-score = -0.6
HAUS7 | viability hit class = no change; caspase hit class = no change; viability robust z-score = -0.22; caspase robust z-score = 0.96
CXCL17 | viability hit class = no change; caspase hit class = no change; viability robust z-score = 0.34; caspase robust z-score = -1.14
SORBS1 | viability hit class = no change; caspase hit class = no change; viability robust z-score = 0.44; caspase robust z-score = -1.03
DGKB | viability hit class = no change; caspase hit class = no change; viability robust z-score = -0.96; caspase robust z-score = -1.19
PTMA | viability hit class = no change; caspase hit class = no change; viability robust z-score = -2.46; caspase robust z-score = 2.29

No new results follow: an excerpt of the list.
CXCL17 | viability hit class = no change; caspase hit class = no change; viability robust z-score = 0.34; caspase robust z-score = -1.14
SORBS1 | viability hit class = no change; caspase hit class = no change; viability robust z-score = 0.44; caspase robust z-score = -1.03
DGKB | viability hit class = no change; caspase hit class = no change; viability robust z-score = -0.96; caspase robust z-score = -1.19
PTMA | viability hit class = no change; caspase hit class = no change; viability robust z-score = -2.46; caspase robust z-score = 2.29
